Construct, isoform or probe ends are uncertain for at least one entry. Protein sequences can lack the tags named with them.
Molecular target: T1, 6his-GSU1771 (UniProt Q74CA3)
T1 sequence (looked up, limits assumed): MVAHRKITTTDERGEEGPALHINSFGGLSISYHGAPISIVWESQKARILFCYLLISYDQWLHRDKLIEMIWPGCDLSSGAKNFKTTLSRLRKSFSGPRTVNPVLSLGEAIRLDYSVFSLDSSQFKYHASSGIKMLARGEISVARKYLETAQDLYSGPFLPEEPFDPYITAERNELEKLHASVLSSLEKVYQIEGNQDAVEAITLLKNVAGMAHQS
Experiment: EMSA
Settings: 0.1-1 uM protein, control fragment N7 in same reaction; 40 mM HEPES, 8 mM MgCl2, 50 mM KCl, 1 mM DTT, 0.05% NP-40, 0.1 mg/ml BSA, 20 ul, 30 C 30 min, pH not stated; 100 ng of each fragment; 6% native PAGE in 0.5X TBE; recombinant protein; probe letters rebuilt from the primers and the genome

CGCGCAAAACAATTCAGACGCGAAGCCGGTTACCCTTCGGATGACCGGCTTTTTTGTTGCTAAAGAGGAAAACTCAGGGTTGTCTCCGACAAACCTAAACCAAAATGCAGCCCACAACATGCTGCAACAATTAACTATTTCAAAATGGTAACACCCGTAAAACATTTTGTGTTGACATTCAGATACAAGGTTTGTTAGTTCTATAGTCAGCAATTCACCAAACAAATCAGATACACGACAATACTAAACCATCCGCGAGGATGGGGCGGAAAGCCTAAGGGTCTCCCTGAGACAGCCGGGTCGCCGAAATATCTGAACGATATCAGGCCCCGGCTTTTTTGTGCCCGGGCTGCCGGATCGTTCTGATCCGGTACACTACCACGCGCTCAGG (double strand) [pgcA promoter]
binding result: binds

Source: paper PMC10599522
